Data published in publication PMC11645128.
These are yes or no findings as the source states them, for the method shown. In cells and extracts the contact can be indirect. Some entries that bind do so weakly or less than the wild type. Sequences can lack the tags named with a protein.

Amino acid sequences for entries named in this document (tags omitted).
UniProt O35973: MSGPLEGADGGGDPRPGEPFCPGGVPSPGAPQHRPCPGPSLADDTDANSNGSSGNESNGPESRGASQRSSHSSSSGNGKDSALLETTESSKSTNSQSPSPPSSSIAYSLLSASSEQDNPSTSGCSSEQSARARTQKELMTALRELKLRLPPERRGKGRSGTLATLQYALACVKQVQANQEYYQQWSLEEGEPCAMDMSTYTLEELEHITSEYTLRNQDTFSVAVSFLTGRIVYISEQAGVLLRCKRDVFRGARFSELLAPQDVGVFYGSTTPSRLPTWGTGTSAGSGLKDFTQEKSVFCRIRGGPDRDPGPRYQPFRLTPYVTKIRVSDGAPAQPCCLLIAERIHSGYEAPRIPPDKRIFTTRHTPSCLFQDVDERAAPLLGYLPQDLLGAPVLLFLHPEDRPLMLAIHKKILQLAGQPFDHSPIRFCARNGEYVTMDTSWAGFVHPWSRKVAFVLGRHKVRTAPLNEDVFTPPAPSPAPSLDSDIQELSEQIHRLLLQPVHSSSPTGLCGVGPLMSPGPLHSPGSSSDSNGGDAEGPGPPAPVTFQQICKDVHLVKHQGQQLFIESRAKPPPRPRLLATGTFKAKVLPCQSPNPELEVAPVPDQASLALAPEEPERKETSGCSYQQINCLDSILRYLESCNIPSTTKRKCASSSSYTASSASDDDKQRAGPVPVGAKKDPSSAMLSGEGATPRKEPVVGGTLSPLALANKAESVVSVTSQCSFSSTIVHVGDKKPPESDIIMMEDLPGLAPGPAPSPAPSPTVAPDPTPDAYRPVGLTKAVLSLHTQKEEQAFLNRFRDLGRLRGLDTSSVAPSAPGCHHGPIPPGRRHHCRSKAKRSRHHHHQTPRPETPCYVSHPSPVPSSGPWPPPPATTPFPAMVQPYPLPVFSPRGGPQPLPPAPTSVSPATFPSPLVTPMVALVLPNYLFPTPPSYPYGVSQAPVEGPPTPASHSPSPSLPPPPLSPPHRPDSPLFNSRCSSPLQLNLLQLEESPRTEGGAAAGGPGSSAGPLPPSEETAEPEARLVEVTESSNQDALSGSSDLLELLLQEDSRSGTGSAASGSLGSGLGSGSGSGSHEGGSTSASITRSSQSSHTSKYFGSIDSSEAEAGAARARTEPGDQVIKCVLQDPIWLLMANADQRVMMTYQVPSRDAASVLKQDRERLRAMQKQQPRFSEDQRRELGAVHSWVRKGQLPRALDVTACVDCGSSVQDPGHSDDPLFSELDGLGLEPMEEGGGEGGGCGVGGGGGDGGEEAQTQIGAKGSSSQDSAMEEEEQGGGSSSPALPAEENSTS

B1: Flag-tagged Cry1 (protein, UniProt P97784 1-606)
chain: MGVNAVHWFRKGLRLHDNPALKECIQGADTIRCVYILDPWFAGSSNVGINRWRFLLQCLEDLDANLRKLNSRLFVIRGQPADVFPRLFKEWNITKLSIEYDSEPFGKERDAAIKKLATEAGVEVIVRISHTLYDLDKIIELNGGQPPLTYKRFQTLVSKMEPLEMPADTITSDVIGKCMTPLSDDHDEKYGVPSLEELGFDTDGLSSAVWPGGETEALTRLERHLERKAWVANFERPRMNANSLLASPTGLSPYLRFGCLSCRLFYFKLTDLYKKVKKNSSPPLSLYGQLLWREFFYTAATNNPRFDKMEGNPICVQIPWDKNPEALAKWAEGRTGFPWIDAIMTQLRQEGWIHHLARHAVACFLTRGDLWISWEEGMKVFEELLLDADWSINAGSWMWLSCSSFFQQFFHCYCPVGFGRRTDPNGDYIRRYLPVLRGFPAKYIYDPWNAPEGIQKVAKCLIGVNYPKPMVNHAEASRLNIERMKQIYQQLSRYRGLGLLASVPSNSNGNGGLMGYAPGENVPSCSSSGNGGLMGYAPGENVPSCSGGNCSQGSGILHYAHGDSQQTHSLKQGRSSAGTGLSSGKRPSQEEDAQSVGPKVQRQSSN
B2: Flag-tagged Cry2 (protein, UniProt Q9R194 1-592)
chain: MAAAAVVAATVPAQSMGADGASSVHWFRKGLRLHDNPALLAAVRGARCVRCVYILDPWFAASSSVGINRWRFLLQSLEDLDTSLRKLNSRLFVVRGQPADVFPRLFKEWGVTRLTFEYDSEPFGKERDAAIMKMAKEAGVEVVTENSHTLYDLDRIIELNGQKPPLTYKRFQALISRMELPKKPAVAVSSQQMESCRAEIQENHDDTYGVPSLEELGFPTEGLGPAVWQGGETEALARLDKHLERKAWVANYERPRMNANSLLASPTGLSPYLRFGCLSCRLFYYRLWDLYKKVKRNSTPPLSLFGQLLWREFFYTAATNNPRFDRMEGNPICIQIPWDRNPEALAKWAEGKTGFPWIDAIMTQLRQEGWIHHLARHAVACFLTRGDLWVSWESGVRVFDELLLDADFSVNAGSWMWLSCSAFFQQFFHCYCPVGFGRRTDPSGDYIRRYLPKLKGFPSRYIYEPWNAPESVQKAAKCIIGVDYPRPIVNHAETSRLNIERMKQIYQQLSRYRGLCLLASVPSCVEDLSHPVAEPGSSQAGSISNTGPRALSSGPASPKRKLEAAEEPPGEELTKRARVTEMPTQEPASKDS

Biological target: Myc-tagged mouse Per1 (wild type) (mouse) (UniProt O35973)
Experiment: co-IP; COS7 cells co-transfected with Myc-Per and Flag-Cry expression vectors; whole-cell extracts precipitated with anti-MYC antibody on protein G-Sepharose, 4 °C, 2 h; western blotting

Row | Binder | binding
1 | B1 | binds
2 | B2 | binds
